The text below walks through data of US20090258013A1.

The chains behind the UniProt entries cited, without tags or fusion partners. Residues count along the entry.
UniProt P15151, residues 21-343: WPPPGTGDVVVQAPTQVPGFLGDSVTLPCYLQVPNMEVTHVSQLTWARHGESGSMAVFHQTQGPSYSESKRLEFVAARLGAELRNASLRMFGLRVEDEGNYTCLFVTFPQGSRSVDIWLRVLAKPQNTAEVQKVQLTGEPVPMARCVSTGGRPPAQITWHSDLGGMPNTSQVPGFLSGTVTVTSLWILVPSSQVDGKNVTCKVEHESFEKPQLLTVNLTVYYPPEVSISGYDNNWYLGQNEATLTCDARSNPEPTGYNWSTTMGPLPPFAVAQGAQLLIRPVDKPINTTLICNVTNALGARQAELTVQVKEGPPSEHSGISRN

These are yes or no findings as the source states them, for the method shown. Some results given as binding are weak or reduced against the parent protein; the word gives no strength.

Assay [1] has as its target gD-tagged full-length TIGIT expressed on stably transfected CHO cells (human). Put plainly: flow cytometry, biotinylated PVR-Fc on CHO-TIGIT, without antibody D171. In general terms: A flow cytometer gives signals particle by particle.
For assay [2] the target is unchanged. Put plainly: flow cytometry, biotinylated Fc ligand + streptavidin-PE (y: Ligand Binding PE) vs receptor expression (x) on CHO transfectants.

For “PVR-Fc fusion protein (from UniProt P15151 21-343)”, the binding result in assay [1] and in assay [2] was “binds” throughout.
